Measured values published in patent publication US20110071148A1, “COMPOUNDS AS THE ESTROGEN RELATED RECEPTORS MODULATORS AND THE USES THEREOF” (Guangzhou Institute of Biomedicine and Health, Chinese …, priority 2008, published 2011).
For at least one compound, name, drawing or mass did not settle the structure.

Tested on: Rat myoblasts L6 (myotubes)
Assay: Insulin-dependent 3H-2-deoxy-glucose uptake in L6 myotubes
Assay type: cell-based
Conditions: 48 hrs treatment, 100 nM insulin, FIG. 5

SMILES: CN(CCOc1ccc(CC2SC(=O)NC2=O)cc1)c1ccccn1 (stereo not shown) [rosiglitazone]
- insulin-dependent glucose uptake in myotubes: enhances the uptake of glucose
